Measurements reported in US5385834.

Target: T7 RNA polymerase mutant GP1(lys222), expressed from pKGP-HA1mut4 or pMutA/B E222K (Bacteriophage T7) (UniProt P00573)
Assay: activity in cells
Settings: 200 colonies on kan/amp/cam; usage comparable to wild-type enzyme; protein in cells; only the site is given

TAATACGACTCACTATAGGGAGA (double strand) [consensus T7 phi10 promoter (pCAT10-1)]
functional effect: active
